Test results reported in publication doi:10.1101/2021.06.18.449081.
Results are given in words; binding and its absence hold for the method and conditions named. Binding seen in cells or lysates may run through a third protein. Some results given as binding are weak or reduced against the parent protein; the word gives no strength.

Amino acid sequences for entries named in this document (tags omitted).
UniProt P10218: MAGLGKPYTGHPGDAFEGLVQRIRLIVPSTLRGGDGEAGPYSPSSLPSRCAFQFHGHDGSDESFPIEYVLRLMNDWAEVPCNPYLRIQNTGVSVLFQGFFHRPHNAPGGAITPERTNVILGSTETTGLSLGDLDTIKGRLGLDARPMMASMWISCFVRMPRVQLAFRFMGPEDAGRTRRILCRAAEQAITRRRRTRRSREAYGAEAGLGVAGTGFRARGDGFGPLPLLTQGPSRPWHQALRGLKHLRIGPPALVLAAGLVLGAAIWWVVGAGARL
UniProt P10215: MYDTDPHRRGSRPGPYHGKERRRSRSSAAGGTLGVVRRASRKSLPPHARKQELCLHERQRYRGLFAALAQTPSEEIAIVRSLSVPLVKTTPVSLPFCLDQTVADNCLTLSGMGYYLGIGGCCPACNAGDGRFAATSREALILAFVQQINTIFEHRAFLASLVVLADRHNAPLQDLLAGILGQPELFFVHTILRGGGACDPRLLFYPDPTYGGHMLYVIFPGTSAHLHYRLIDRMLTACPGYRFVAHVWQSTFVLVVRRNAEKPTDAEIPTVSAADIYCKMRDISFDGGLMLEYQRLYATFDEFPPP

Molecular target: HA-tagged HSV-1 pUL34 (HSV-1 strain F) (UniProt P10218)
Assay: co-IP

For “HSV-1 pUL31-FLAG (from UniProt P10215 1-306)”, the binding was “binds”.
